Results on 1 molecule are retold here after patent US20250019448A1 (BIOCOMPLETE, published 2025).

Sequences of proteins named here, by UniProt entry; tags and fusion partners are left off. A change or cut given only in a name is not applied to a line headed by its entry.
UniProt Q99835: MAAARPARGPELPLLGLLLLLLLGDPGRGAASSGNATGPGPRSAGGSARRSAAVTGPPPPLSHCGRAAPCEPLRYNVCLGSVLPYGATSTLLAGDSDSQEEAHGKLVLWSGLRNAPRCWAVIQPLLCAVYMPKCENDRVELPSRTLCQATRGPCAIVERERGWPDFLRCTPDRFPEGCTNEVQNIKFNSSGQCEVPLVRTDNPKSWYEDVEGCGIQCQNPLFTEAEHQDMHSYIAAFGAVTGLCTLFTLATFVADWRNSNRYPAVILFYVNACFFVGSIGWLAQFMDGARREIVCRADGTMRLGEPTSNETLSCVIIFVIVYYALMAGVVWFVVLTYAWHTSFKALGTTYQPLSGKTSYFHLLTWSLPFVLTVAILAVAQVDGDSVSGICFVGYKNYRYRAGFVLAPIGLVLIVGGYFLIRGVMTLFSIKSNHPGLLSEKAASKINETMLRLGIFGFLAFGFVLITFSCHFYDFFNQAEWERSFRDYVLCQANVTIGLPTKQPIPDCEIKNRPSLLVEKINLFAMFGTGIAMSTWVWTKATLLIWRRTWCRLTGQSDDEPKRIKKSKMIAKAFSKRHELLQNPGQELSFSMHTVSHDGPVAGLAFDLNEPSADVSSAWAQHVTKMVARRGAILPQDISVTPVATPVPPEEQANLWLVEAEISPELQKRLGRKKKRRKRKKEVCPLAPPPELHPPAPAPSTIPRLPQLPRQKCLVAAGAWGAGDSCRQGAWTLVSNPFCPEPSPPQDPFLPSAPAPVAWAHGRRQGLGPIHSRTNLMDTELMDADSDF

Results are given in words; binding and its absence hold for the method and conditions named. Some binding calls cover weakened binding; strength is not graded here.

This assay deals with SMO (smoothened) protein (Homo sapiens (Human)) (UniProt Q99835). Description: flow cytometry on HCT116 cells, 10 µg antibody, Alexa 594 secondary antibody. (Flow cytometry measures light scatter and fluorescence of single cells or particles in a stream.)

B1: #47-7 antibody (IgG form) (antibody, V domains shown)
VH: QVQLVQSGGGVVQPGSSLRLSCEASGFAIGDNALNWVRQAPGKGLEWVGYIRSNSYGGTAEYAASVKGRFTISKDESKNIAYLEMNSLRAEDTAVYYCARRAHHYGGSTYNPSWYFDLWGRGTLVTVSS
VL: EIVLTQSPSFLSASVGDRVTITCRASQDISRRLAWYQQKPGKAPKLLIYGASNLASGVPSRFTGSGSGTEFTLTISSLQPDDFATYYCQQGYSSPRTFGQGTKVDIK
As for B1, the binding result was “binds”.
